Where a name gives a salt, the structure may show the parent alone. The list shows a part of the results. Most values lie at the level of the controls, where differences are scatter.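 Reh is a human leukemia cell line; the read-out is the median γH2AX antibody signal in S-phase cells by flow cytometry, with the score counting standard deviations from the median difference of each paired set of plates. Scores above 2.5 were called candidate hits, while scores below -2 mark compounds that lowered the MK1775-induced damage.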
Tested on: Reh
Assay: Z' of S-phase gammaH2AX difference (drug + MK1775 minus drug alone) (Z-score); higher = stronger synergistic S-phase DNA damage with MK1775
Settings: MK1775 concentration 400 nM; first compound 10 µM; 4 h

Row | SMILES | Z' of S-phase gammaH2AX difference (Z-score)
1 | Cc1cccc(C)c1NC1=NCCCS1 [Xylazine hydrochloride] + C=CCn1c(=O)c2cnc(Nc3ccc(N4CCN(C)CC4)cc3)nc2n1-c1cccc(C(C)(C)O)n1 [MK1775] | inactive: -0.214
2 | CCNC(=O)[C@H]1O[C@@H](n2cnc3c(N)ncnc32)[C@H](O)[C@@H]1O [5'-N-Ethylcarboxamidoadenosine] + C=CCn1c(=O)c2cnc(Nc3ccc(N4CCN(C)CC4)cc3)nc2n1-c1cccc(C(C)(C)O)n1 [MK1775] | inactive: -0.26
3 | Oc1ccc2c3c1O[C@H]1c4oc5ccccc5c4C[C@@]4(O)[C@@H](C2)N(CC2CC2)CC[C@]314 [Naltriben methanesulfonate] + C=CCn1c(=O)c2cnc(Nc3ccc(N4CCN(C)CC4)cc3)nc2n1-c1cccc(C(C)(C)O)n1 [MK1775] | inactive: 0.311
4 | NC(=O)CN1CCCC1=O [Piracetam] + C=CCn1c(=O)c2cnc(Nc3ccc(N4CCN(C)CC4)cc3)nc2n1-c1cccc(C(C)(C)O)n1 [MK1775] | inactive: -0.602
5 | NCc1cc(O)no1 [Muscimol hydrobromide] + C=CCn1c(=O)c2cnc(Nc3ccc(N4CCN(C)CC4)cc3)nc2n1-c1cccc(C(C)(C)O)n1 [MK1775] | inactive: 0.338
6 | CC(=O)NBr [N-Bromoacetamide] + C=CCn1c(=O)c2cnc(Nc3ccc(N4CCN(C)CC4)cc3)nc2n1-c1cccc(C(C)(C)O)n1 [MK1775] | inactive: 0.107
7 | CC(C)NP(=O)(NC(C)C)OP(=O)(NC(C)C)NC(C)C [Tetraisopropyl pyrophosphoramide] + C=CCn1c(=O)c2cnc(Nc3ccc(N4CCN(C)CC4)cc3)nc2n1-c1cccc(C(C)(C)O)n1 [MK1775] | inactive: 0.334
8 | C=CCc1ccccc1OCC(O)CNC1(C)CCC(C(C)(C)NC(=O)CBr)CC1 (stereo not drawn) [Bromoacetyl alprenolol menthane] + C=CCn1c(=O)c2cnc(Nc3ccc(N4CCN(C)CC4)cc3)nc2n1-c1cccc(C(C)(C)O)n1 [MK1775] | inactive: -0.969
9 | Cc1c2ccncc2c(C)c2c1[nH]c1ccccc12 [Ellipticine] + C=CCn1c(=O)c2cnc(Nc3ccc(N4CCN(C)CC4)cc3)nc2n1-c1cccc(C(C)(C)O)n1 [MK1775] | inactive: -1.72
10 | CCCN(CCC)C1CCc2cccc(O)c2C1 (stereo not drawn) [(?)-8-Hydroxy-DPAT hydrobromide] + C=CCn1c(=O)c2cnc(Nc3ccc(N4CCN(C)CC4)cc3)nc2n1-c1cccc(C(C)(C)O)n1 [MK1775] | inactive: 1.31
11 | CCCN1CCc2cccc3c2[C@H]1Cc1ccc(O)c(O)c1-3 [R(-)-Propylnorapomorphine hydrochloride] + C=CCn1c(=O)c2cnc(Nc3ccc(N4CCN(C)CC4)cc3)nc2n1-c1cccc(C(C)(C)O)n1 [MK1775] | inactive: -0.197
12 | c1ccc2c(c1)[I+]c1ccccc1-2 [Diphenyleneiodonium chloride] + C=CCn1c(=O)c2cnc(Nc3ccc(N4CCN(C)CC4)cc3)nc2n1-c1cccc(C(C)(C)O)n1 [MK1775] | inactive: -0.498
13 | CNc1ccc2oc(C[C@H]3O[C@@]4(CC[C@H]3C)O[C@H]([C@H](C)C(=O)c3ccc[nH]3)[C@H](C)C[C@H]4C)nc2c1C(=O)O [Calcimycin] + C=CCn1c(=O)c2cnc(Nc3ccc(N4CCN(C)CC4)cc3)nc2n1-c1cccc(C(C)(C)O)n1 [MK1775] | inactive: -1.05
14 | COc1ccc2c(c[n+](C)c3c4cc5c(cc4ccc23)OCO5)c1OC [Chelerythrine chloride] + C=CCn1c(=O)c2cnc(Nc3ccc(N4CCN(C)CC4)cc3)nc2n1-c1cccc(C(C)(C)O)n1 [MK1775] | inactive: 0.635
15 | C[C@H](Cc1ccc2c(c1)OC(C(=O)O)(C(=O)O)O2)NC[C@H](O)c1cccc(Cl)c1 + C=CCn1c(=O)c2cnc(Nc3ccc(N4CCN(C)CC4)cc3)nc2n1-c1cccc(C(C)(C)O)n1 [MK1775] | inactive: 0.892
16 | CCC1(c2ccc(N)cc2)CCC(=O)NC1=O (stereo not drawn) [(?)-p-Aminoglutethimide] + C=CCn1c(=O)c2cnc(Nc3ccc(N4CCN(C)CC4)cc3)nc2n1-c1cccc(C(C)(C)O)n1 [MK1775] | inactive: -0.254
17 | CCC1(c2ccc(N)cc2)CCC(=O)NC1=O (stereo not drawn) [Aminoglutethimide (Cytadren)] + C=CCn1c(=O)c2cnc(Nc3ccc(N4CCN(C)CC4)cc3)nc2n1-c1cccc(C(C)(C)O)n1 [MK1775] | inactive: 0.446
18 | C[N+]1(C)CCN(c2ccccc2)CC1 [1,1-Dimethyl-4-phenyl-piperazinium iodide] + C=CCn1c(=O)c2cnc(Nc3ccc(N4CCN(C)CC4)cc3)nc2n1-c1cccc(C(C)(C)O)n1 [MK1775] | inactive: -0.857
19 | NC(=O)COc1c(F)cc(SCCNS(=O)(=O)c2ccccc2)cc1F + C=CCn1c(=O)c2cnc(Nc3ccc(N4CCN(C)CC4)cc3)nc2n1-c1cccc(C(C)(C)O)n1 [MK1775] | inactive: 0.0534
20 | CCCN1CCC[C@H](c2cccc(O)c2)C1 [R(+)-3PPP hydrochloride] + C=CCn1c(=O)c2cnc(Nc3ccc(N4CCN(C)CC4)cc3)nc2n1-c1cccc(C(C)(C)O)n1 [MK1775] | inactive: -0.121
21 | NCCc1ccc(O)cc1 [4-Hydroxyphenethylamine hydrochloride] + C=CCn1c(=O)c2cnc(Nc3ccc(N4CCN(C)CC4)cc3)nc2n1-c1cccc(C(C)(C)O)n1 [MK1775] | inactive: 0.591
22 | CN(C(=O)Cc1ccc(Cl)c(Cl)c1)C(CN1CCCC1)c1cccc(OCC(=O)O)c1 (stereo not drawn) [ICI 204,448 hydrochloride] + C=CCn1c(=O)c2cnc(Nc3ccc(N4CCN(C)CC4)cc3)nc2n1-c1cccc(C(C)(C)O)n1 [MK1775] | inactive: 0.284
23 | CCn1cc(C(=O)O)c(=O)c2cc3c(cc21)OCO3 [Oxolinic acid] + C=CCn1c(=O)c2cnc(Nc3ccc(N4CCN(C)CC4)cc3)nc2n1-c1cccc(C(C)(C)O)n1 [MK1775] | inactive: -0.446

Random excerpt: two records from the list.
Row | SMILES | Z' of S-phase gammaH2AX difference (Z-score)
13 | CNc1ccc2oc(C[C@H]3O[C@@]4(CC[C@H]3C)O[C@H]([C@H](C)C(=O)c3ccc[nH]3)[C@H](C)C[C@H]4C)nc2c1C(=O)O [Calcimycin] + C=CCn1c(=O)c2cnc(Nc3ccc(N4CCN(C)CC4)cc3)nc2n1-c1cccc(C(C)(C)O)n1 [MK1775] | inactive: -1.05
22 | CN(C(=O)Cc1ccc(Cl)c(Cl)c1)C(CN1CCCC1)c1cccc(OCC(=O)O)c1 (stereo not drawn) [ICI 204,448 hydrochloride] + C=CCn1c(=O)c2cnc(Nc3ccc(N4CCN(C)CC4)cc3)nc2n1-c1cccc(C(C)(C)O)n1 [MK1775] | inactive: 0.284

From the supplement of paper PMC5355238
